Data as given in paper doi:10.1101/751974.
Results are given in words; binding and its absence hold for the method and conditions named. In cells and extracts the contact can be indirect. Some entries that bind do so weakly or less than the wild type.

Chains of the proteins cited; added tags and fusions are not shown.
UniProt P27694: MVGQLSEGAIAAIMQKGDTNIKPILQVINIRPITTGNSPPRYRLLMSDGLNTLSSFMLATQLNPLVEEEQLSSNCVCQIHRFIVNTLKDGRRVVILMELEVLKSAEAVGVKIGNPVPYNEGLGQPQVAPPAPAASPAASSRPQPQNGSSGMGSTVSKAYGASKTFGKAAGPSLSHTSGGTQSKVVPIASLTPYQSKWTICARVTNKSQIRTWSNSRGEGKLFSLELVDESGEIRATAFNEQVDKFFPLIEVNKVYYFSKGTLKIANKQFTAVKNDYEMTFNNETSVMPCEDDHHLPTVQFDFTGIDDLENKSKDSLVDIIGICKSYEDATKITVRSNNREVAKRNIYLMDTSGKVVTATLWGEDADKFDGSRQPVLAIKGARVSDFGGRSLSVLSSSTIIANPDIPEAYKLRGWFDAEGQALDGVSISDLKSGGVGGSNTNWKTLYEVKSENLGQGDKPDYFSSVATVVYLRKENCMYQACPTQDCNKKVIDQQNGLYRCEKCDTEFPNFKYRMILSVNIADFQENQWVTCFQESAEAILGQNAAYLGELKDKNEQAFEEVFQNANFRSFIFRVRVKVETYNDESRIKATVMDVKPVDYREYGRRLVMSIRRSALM

Target: HA-RPA1 (UniProt P27694)
Assay: co-IP

B1: MCM8IP, endogenous (protein, UniProt Q8N3J3-4 1-646)
chain: MACSLQKLFAVEEEFEDEDFLSAVEDAENRFTGSLPVNAGRLRPVSSRPQETVQAQSSRLLLLHPTAPSEALGLPDLDLCLPASSTPSADSRPSCIGAAPLRPVSTSSSWIGNQRRVTVTEVLRETARPQSSALHPLLTFESQQQQVGGFEGPEQDEFDKVLASMELEEPGMELECGVSSEAIPILPAQQREGSVLAKKARVVDLSGSCQKGPVPAIHKAGIMSAQDESLDPVIQCRTPRPPLRPGAVGHLPVPTALTVPTQQLHWEVCPQRSPVQALQPLQAARGTIQSSPQNRFPCQPFQSPSSWLSGKAHLPRPRTPNSSCSTPSRTSSGLFPRIPLQPQAPVSSIGSPVGTPKGPQGALQTPIVTNHLVQLVTAASRTPQQPTHPSTRAKTRRFPGPAGILPHQQSGRSLEDIMVSAPQTPTHGALAKFQTEIVASSQASVEEDFGRGPWLTMKSTLGLDERDPSCFLCTYSIVMVLRKAALKQLPRNKVPNMAVMIKSLTRSTMDASVVFKDPTGEMQGTVHRLLLETCQNELKPGSVLLLKQIGVFSPSLRNHYLNVTPNNLVHIYSPDSGDGSFLKPSQPFPKDSGSFQHDVAAKPEEGFRTAQNLEAEASPEEELPEADDLDGLLSELPEDFFCGTSS
  binding: binds
